In PMC8043893:
These are yes or no findings as the source states them, for the method shown. In cells and extracts the contact can be indirect. A yes stands for co-enrichment or nearness to the bait. Other partners may have been found. For part of these data: Tags and fused reporters may be left off the sequences shown.

Protein sequences, listed by entry. Tags and fused reporters are not part of them.
UniProt Q9GZV5: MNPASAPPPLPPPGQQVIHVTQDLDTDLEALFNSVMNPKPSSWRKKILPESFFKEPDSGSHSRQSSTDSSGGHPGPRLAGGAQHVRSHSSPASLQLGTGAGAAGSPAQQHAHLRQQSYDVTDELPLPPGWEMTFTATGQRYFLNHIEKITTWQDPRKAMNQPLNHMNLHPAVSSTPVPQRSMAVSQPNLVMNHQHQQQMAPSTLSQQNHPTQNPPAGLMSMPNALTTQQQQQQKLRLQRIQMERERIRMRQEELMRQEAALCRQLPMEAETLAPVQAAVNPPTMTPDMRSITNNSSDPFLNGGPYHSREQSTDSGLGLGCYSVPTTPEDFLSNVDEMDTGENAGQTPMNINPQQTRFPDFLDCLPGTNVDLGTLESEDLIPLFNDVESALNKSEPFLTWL
UniProt O75376: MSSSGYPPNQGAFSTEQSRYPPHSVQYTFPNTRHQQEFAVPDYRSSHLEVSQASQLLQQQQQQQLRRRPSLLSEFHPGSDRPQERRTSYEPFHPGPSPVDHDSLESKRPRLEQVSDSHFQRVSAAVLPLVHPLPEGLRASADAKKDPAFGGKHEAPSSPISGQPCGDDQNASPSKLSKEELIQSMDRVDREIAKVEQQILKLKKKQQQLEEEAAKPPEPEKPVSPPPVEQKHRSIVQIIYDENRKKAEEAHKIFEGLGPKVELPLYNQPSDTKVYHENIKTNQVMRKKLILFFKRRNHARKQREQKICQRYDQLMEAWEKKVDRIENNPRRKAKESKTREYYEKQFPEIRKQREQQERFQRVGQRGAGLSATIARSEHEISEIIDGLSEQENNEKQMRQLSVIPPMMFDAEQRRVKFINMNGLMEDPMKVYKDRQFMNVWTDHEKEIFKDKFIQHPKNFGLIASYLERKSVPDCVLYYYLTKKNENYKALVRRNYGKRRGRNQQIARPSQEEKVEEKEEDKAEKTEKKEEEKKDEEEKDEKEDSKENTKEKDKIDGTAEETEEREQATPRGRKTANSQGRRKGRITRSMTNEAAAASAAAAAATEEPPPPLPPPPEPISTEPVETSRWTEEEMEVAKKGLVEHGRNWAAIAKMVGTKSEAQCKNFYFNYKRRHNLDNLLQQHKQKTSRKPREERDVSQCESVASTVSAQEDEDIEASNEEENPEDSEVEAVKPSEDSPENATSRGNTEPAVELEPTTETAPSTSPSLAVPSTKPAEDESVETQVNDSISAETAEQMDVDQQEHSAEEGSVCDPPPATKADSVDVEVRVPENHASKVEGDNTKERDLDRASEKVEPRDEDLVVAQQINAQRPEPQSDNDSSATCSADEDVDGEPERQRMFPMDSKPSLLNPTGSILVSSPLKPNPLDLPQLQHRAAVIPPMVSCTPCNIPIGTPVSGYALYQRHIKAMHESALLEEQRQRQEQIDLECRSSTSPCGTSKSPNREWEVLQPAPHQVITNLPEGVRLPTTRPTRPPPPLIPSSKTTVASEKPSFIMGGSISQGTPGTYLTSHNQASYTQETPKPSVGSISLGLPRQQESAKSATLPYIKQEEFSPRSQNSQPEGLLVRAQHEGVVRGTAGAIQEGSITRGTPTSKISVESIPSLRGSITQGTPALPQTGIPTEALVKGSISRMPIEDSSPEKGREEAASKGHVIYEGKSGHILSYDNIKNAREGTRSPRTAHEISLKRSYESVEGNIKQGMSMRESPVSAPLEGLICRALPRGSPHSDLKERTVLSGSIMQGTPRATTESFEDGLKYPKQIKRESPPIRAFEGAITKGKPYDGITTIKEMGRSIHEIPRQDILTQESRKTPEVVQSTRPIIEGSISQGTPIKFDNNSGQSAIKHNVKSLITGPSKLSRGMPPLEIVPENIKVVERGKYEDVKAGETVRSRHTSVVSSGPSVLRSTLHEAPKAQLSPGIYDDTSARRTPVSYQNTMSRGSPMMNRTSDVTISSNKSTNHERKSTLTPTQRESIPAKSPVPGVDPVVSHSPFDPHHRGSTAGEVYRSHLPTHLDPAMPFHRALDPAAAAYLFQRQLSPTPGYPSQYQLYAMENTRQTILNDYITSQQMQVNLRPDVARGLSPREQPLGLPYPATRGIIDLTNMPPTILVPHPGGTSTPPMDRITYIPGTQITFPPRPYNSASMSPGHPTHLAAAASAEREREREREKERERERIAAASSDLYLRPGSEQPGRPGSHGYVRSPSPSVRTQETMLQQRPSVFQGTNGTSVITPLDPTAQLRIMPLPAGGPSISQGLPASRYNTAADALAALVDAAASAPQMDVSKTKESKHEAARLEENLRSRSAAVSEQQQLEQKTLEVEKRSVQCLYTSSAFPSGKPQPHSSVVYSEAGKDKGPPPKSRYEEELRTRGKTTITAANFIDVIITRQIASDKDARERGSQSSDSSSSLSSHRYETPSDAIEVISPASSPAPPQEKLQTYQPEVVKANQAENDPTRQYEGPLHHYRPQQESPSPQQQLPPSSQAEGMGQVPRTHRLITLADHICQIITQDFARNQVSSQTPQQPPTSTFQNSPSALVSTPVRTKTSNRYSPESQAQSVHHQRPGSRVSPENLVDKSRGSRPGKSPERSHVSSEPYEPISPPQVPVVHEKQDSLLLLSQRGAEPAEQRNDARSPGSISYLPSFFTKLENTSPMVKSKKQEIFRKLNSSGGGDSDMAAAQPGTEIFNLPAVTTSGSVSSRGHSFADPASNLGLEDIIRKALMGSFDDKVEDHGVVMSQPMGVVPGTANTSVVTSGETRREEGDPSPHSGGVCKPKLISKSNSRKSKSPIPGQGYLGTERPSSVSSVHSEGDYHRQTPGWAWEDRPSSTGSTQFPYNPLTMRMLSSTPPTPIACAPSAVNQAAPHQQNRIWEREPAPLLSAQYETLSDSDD
UniProt Q6F5E8: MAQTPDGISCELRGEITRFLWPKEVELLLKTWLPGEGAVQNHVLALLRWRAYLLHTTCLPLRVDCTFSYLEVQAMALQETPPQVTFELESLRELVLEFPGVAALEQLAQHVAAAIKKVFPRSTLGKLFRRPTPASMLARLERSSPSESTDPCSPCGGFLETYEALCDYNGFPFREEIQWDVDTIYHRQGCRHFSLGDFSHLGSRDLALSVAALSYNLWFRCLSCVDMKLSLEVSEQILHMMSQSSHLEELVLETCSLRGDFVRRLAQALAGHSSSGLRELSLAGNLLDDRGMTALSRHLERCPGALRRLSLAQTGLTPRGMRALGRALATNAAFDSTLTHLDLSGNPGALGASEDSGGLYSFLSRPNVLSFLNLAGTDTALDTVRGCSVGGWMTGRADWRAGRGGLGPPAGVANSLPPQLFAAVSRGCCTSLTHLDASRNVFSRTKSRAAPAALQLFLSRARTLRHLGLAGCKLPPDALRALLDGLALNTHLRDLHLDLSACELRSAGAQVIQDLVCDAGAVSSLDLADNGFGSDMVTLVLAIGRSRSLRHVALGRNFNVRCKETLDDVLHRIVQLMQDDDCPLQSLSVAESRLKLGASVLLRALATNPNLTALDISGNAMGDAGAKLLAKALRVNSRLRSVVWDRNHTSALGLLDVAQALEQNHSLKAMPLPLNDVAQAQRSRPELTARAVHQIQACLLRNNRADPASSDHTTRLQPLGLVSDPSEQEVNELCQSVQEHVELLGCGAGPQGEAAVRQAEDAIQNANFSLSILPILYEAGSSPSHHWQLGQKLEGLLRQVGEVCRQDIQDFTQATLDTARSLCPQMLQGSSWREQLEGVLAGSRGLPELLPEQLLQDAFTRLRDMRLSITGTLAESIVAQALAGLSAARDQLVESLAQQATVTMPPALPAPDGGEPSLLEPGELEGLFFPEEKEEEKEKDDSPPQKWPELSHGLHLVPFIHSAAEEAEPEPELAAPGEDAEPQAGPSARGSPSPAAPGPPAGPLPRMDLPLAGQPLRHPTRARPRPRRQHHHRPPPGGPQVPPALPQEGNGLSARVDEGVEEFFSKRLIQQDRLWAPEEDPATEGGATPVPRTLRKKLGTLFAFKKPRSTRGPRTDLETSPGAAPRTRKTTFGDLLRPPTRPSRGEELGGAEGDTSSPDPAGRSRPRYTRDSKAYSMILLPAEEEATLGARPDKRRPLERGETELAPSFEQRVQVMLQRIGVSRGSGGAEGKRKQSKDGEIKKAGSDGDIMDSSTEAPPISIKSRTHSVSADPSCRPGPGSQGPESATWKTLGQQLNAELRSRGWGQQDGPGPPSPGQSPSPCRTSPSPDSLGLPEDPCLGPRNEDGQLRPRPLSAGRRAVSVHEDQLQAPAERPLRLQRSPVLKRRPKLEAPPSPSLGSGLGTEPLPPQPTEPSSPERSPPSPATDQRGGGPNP
UniProt Q9UGP4: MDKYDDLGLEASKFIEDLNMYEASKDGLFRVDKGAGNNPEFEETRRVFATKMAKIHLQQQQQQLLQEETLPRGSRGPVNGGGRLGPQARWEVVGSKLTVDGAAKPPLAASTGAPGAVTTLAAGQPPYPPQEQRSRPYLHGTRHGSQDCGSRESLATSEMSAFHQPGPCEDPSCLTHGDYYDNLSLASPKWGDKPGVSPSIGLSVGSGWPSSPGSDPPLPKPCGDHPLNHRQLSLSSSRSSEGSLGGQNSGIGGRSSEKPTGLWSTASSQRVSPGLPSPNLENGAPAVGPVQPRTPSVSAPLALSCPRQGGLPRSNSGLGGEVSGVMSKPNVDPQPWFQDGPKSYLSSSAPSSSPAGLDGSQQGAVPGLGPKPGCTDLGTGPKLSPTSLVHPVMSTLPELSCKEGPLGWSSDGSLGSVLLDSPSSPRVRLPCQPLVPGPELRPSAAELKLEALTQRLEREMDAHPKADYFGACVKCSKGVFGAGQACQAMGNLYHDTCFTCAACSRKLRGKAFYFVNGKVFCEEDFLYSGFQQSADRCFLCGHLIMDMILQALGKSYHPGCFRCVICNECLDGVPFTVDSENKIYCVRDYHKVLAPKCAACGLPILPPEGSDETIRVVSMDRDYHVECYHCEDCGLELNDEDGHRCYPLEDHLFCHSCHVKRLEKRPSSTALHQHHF

Assays:
[1] = target: T1, MYC-BioID2-SKI fusion protein (human SKI) (human) (UniProt P12755); assay: proximity labelling; BioID2 fusion bait in primary human cardiac fibroblasts; repeated streptavidin affinity capture of biotinylated proteins, targets probed by immunoblotting
T1 sequence: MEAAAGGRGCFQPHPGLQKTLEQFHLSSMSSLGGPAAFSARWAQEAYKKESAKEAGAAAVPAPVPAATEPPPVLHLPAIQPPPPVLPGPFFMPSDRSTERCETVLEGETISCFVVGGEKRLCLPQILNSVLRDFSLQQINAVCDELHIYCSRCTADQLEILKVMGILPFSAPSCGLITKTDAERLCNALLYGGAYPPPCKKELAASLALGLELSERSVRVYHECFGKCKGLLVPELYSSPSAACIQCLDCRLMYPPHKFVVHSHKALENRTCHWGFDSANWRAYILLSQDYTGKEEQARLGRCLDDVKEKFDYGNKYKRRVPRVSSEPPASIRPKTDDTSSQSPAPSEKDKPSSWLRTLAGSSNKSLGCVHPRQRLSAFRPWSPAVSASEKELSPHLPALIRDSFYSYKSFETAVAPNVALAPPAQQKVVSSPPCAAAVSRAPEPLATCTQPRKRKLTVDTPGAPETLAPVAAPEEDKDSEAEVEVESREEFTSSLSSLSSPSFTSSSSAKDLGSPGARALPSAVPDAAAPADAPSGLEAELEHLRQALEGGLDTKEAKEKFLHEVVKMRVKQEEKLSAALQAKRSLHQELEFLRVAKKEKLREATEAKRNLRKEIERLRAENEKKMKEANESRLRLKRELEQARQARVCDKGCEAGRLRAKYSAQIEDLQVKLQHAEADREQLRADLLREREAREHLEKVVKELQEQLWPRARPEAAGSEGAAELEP

[2] = target: T1, MYC-BioID2-SKI fusion protein (human SKI) (human); assay: proximity labelling; BioID2 fusion bait expressed by adenovirus (MOI 20) in primary human cardiac fibroblasts (P3); 20 uM biotin; lysis; capture on magnetic streptavidin beads; tryptic digestion and MS/MS; SAINTexpress against untreated and empty-BioID2 controls; cut-off fold change >= 3 and SAINT score >= 0.5
[3] = target: MYC-BioID2-TAZ fusion protein (human TAZ/WWTR1) (human) (UniProt Q9GZV5); assay: as above

Row | Substance | binding [1] | binding [2] | binding [3]
1 | Nuclear Co-Repressor 1 (from UniProt O75376 1-2440) | binds | binds | –
2 | Capping Protein Regulator and Myosin 1 Linker 2 (from UniProt Q6F5E8 1-1435) | – | binds | binds
3 | LIM Domain-containing protein 1 (from UniProt Q9UGP4 1-676) | binds | binds | –
